{"source": "PubChem BioAssay AID1259265 | Sanger Institute, 2017", "test": "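Confirm primary screen knock-down and drug pairs in SW620 colorectal cancer cells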 (follow-up of hits)", "system": "SW620 human colorectal cancer cells", "knock-down reagent": "single siRNA against human genes", "treatment": "anchor drug given a day after transfection: BYL719 at 1 µM, cetuximab at 5 µg/ml, trametinib at 10 nM; DMSO alone as the comparison arm", "measured": "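Viability normalised to control pool 2 (non-targeting) and averaged over replicates; synergy score compares combined siRNA and drug effect against each effect alone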", "scale": "synergy score with trametinib: higher = stronger synergy (synthetic lethal) with trametinib; synergy score with BYL719: higher = stronger synergy (synthetic lethal) with BYL719; synergy score with cetuximab: higher = stronger synergy (synthetic lethal) with cetuximab", "active means": "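Synergistic (synthetic lethal) when the synergy score tops 0.10 with trametinib, BYL719 or cetuximab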", "note": "Shown is a random part of 160 reagents tested. Of all reagents, 31 (19%) were called active. 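Calls refer to single siRNAs; agreement across several siRNAs per gene and other cell lines is not shown.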 Reagents against one gene are numbered here. Not all columns of the deposit are shown. The record does not give: the amount of reagent, the time to read-out."}
{"Target gene": "GTF2H1", "reagent": 1, "synergy score with trametinib": -0.151, "synergy score with BYL719": -0.109, "synergy score with cetuximab": -0.0675, "outcome": "inactive"}
{"Target gene": "GTF2H1", "reagent": 2, "synergy score with trametinib": -0.177, "synergy score with BYL719": -0.249, "synergy score with cetuximab": -0.122, "outcome": "inactive"}
{"Target gene": "GTF2H1", "reagent": 3, "synergy score with trametinib": -0.285, "synergy score with BYL719": -0.306, "synergy score with cetuximab": -0.122, "outcome": "inactive"}
{"Target gene": "GTF2H1", "reagent": 4, "synergy score with trametinib": -0.0332, "synergy score with BYL719": -0.0148, "synergy score with cetuximab": -0.0815, "outcome": "inactive"}
{"Target gene": "COASY", "reagent": 1, "synergy score with trametinib": 0.0358, "synergy score with BYL719": 0.0401, "synergy score with cetuximab": -0.0525, "outcome": "inactive"}
{"Target gene": "COASY", "reagent": 2, "synergy score with trametinib": -0.121, "synergy score with BYL719": 0.0688, "synergy score with cetuximab": -0.0768, "outcome": "inactive"}
{"Target gene": "COASY", "reagent": 3, "synergy score with trametinib": -0.00743, "synergy score with BYL719": -0.0475, "synergy score with cetuximab": 0.111}
{"Target gene": "COASY", "reagent": 4, "synergy score with trametinib": 0.00242, "synergy score with BYL719": 0.0688, "synergy score with cetuximab": 0.0302, "outcome": "inactive"}
{"Target gene": "GUCY2D", "reagent": 1, "synergy score with trametinib": 0.0234, "synergy score with BYL719": -0.155, "synergy score with cetuximab": -0.122, "outcome": "inactive"}
{"Target gene": "GUCY2D", "reagent": 2, "synergy score with trametinib": 0.0576, "synergy score with BYL719": -0.0728, "synergy score with cetuximab": -0.0528, "outcome": "inactive"}
{"Target gene": "GUCY2D", "reagent": 3, "synergy score with trametinib": -0.185, "synergy score with BYL719": -0.22, "synergy score with cetuximab": -0.153, "outcome": "inactive"}
{"Target gene": "GUCY2D", "reagent": 4, "synergy score with trametinib": 0.06, "synergy score with BYL719": -0.288, "synergy score with cetuximab": -0.122, "outcome": "inactive"}

2 entries from above, reduced to “synergy score with BYL719”:
GUCY2D #2 = -0.0728
GUCY2D #3 = -0.22
